Results: PubChem BioAssay AID504467 (National Center for Advancing Translational Sciences (NCATS), 2011)
About 7,700 (2.3%) of roughly 330,000 compounds were called active. The inconclusive results got no clear call from the source; some entries with a clear call stand among them for comparison. Calls follow the shape of the dose curve; as a rule, active = well fitted inhibition curve with a large enough effect; inconclusive = small, poorly fitted or top-dose-only effect, or effect the other way; inactive = flat fitted curve, though single readings scatter. Potencies beside an inconclusive call are fits to weak or partial responses and may not hold up.

Assay: qHTS screen for small molecules that inhibit ELG1-dependent DNA repair in human embryonic kidney (HEK293T) cells expressing luciferase-tagged ELG1; also: nearly all actives have a fitted effect of over 55% in size
Conditions: HEK293T ELG1-luciferase reporter, luminescence, 16 h, DNA damage induced by 5-fluorouridine; series mostly up to 46.1 µM
Outline: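 Step one: seed 2,000 cells per well. Step two: pin-transfer compound or DMSO alongside 5-fluorouridine. Step three: incubate 16 hr, 37 °C, 5% CO2. Step four: add ONE-Glo, wait 30 min, read luminescence.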
Potency is read from the fitted curve at half-maximal effect.

Row | Compound | Potency
1 | C=CCNC(=O)/C(C#N)=C/c1cn(-c2ccccc2)nc1-c1cccs1 | inactive
2 | CC(C)C(NC(=O)CC12CC3CC(CC(C3)C1)C2)C(=O)O (stereo unspecified) | inactive
3 | Cn1c(O)c(N=NC(=N)N)c2ccccc21 | inactive
4 | C=CCn1c(SCC2CCCCO2)nc2sc(CC)cc2c1=O (stereo unspecified) | inconclusive: 25.9 µM [inhibitor, single point]
5 | COc1ccc(CNc2cc(C)ccc2C)c(OC)c1OC | inactive
6 | C=CCn1c(=O)/c(=C/c2cc(OC)c(OC)c(OC)c2)s/c1=C(/C#N)c1nc2ccccc2n1C | active: 4.11 µM
7 | COc1cccc(OCc2cc(/C=N/n3cncn3)ccc2OC)c1 | inconclusive: 25.9 µM [inhibitor, partial curve, poor fit]
8 | Cc1ccccc1Nc1nc(-c2sc(NC(=O)c3ccccc3)nc2C)cs1 | inconclusive: 5.8 µM [activator, partial curve, poor fit]
9 | CC(=O)N(C(C)=O)c1ncnc2c1c(-c1ccc(Cl)cc1)nn2C(C)(C)C | inactive
10 | CCN1CCCc2cc(CN(CCN3CCOCC3)C(=S)Nc3ccccc3OC)ccc21 | inconclusive: 11.6 µM [inhibitor, partial curve, poor fit]
11 | COc1cc(NC(=O)c2cccs2)c(C(=O)OCC(=O)c2cc(C)n(-c3ccccc3)c2C)cc1OC | inconclusive: 32.6 µM [inhibitor, partial curve, poor fit]
12 | Cc1occc1C(=O)N/N=C/c1cccc2ccccc12 | inconclusive: 7.3 µM [activator, partial curve]
13 | Fc1ccc(-n2c(Cn3nnc4ccccc43)n[nH]c2=S)cc1 | inactive
14 | Cc1c(C(=O)OC(C)C)nnn1-c1nonc1N | inconclusive: 20.6 µM [activator, partial curve, poor fit]
15 | CCOc1ccc(/C=C2/C(=O)N(c3ccc(OC)cc3)C(=S)N2CC(=O)OC)cc1OCC | inconclusive: 3.66 µM [activator, single point]
16 | CCOC(=O)/C=C/[C@H]1CCc2cccc(C)c2O1 | inconclusive: 14.6 µM [activator, partial curve, poor fit]
17 | Cc1sc(NC(=O)c2cccc(N3C(=O)CCC3=O)c2)nc1-c1ccccc1 | inactive
18 | Cc1ccnc(NC(=O)C2COc3ccccc3O2)c1 (stereo unspecified) | inconclusive: 2.06 µM [activator, partial curve]
19 | O=C(NCc1ccccc1Cl)c1ccc(CSc2nc3ccncc3[nH]2)cc1 | inconclusive: 32.6 µM [inhibitor, partial curve, poor fit]
20 | COc1cc(Cl)c(S(=O)(=O)NCc2ccccn2)cc1Cl | inactive
21 | COc1cc(NC(=O)COc2cccc(C)c2C)ccc1NC(=O)c1ccco1 | inconclusive: 5.8 µM [inhibitor, partial curve]
22 | COCCn1c(SCC(=O)N2CCCCC2)nc2c([nH]c3ccccc32)c1=O | active: 16.4 µM
23 | COc1ccc(CC(=O)NC(C)c2nnc(SCC(=O)Nc3ccccc3)n2C)cc1 (stereo unspecified) | inactive

2 records drawn at random from the list so far:
Row | Compound | Potency
6 | C=CCn1c(=O)/c(=C/c2cc(OC)c(OC)c(OC)c2)s/c1=C(/C#N)c1nc2ccccc2n1C | active: 4.11 µM
4 | C=CCn1c(SCC2CCCCO2)nc2sc(CC)cc2c1=O (stereo unspecified) | inconclusive: 25.9 µM [inhibitor, single point]

(listing goes on)

Row | Compound | Potency
24 | O=C(CSc1nnc(NC(=O)c2cccc(F)c2)s1)NC1CCCC1 | inconclusive: 23.1 µM [activator, partial curve]
25 | Cc1ccccc1N1CCN(S(=O)(=O)C[C@]23CCC(CC2NC(=O)[C@@H](N)CCS(C)(=O)=O)C3(C)C)CC1 (stereo partly specified) | inconclusive: 35.5 µM [activator, single point]
26 | Nc1nnc(SCC(=O)Nc2ccc(N3CCOCC3)cc2)s1 | inconclusive: 7.94 µM [activator, single point]
27 | O=C(NCCCN1CCCC1)C1CCN(C(=O)c2cc3sccc3n2Cc2ccc(F)cc2)CC1 | inactive
28 | COc1ccc(/C=C/C(=O)O)cc1S(=O)(=O)N1CCC(C)CC1 | inactive
29 | COc1cccc(NC(=S)N2CCN(c3ccccn3)CC2)c1 | inactive
30 | COc1ccc(S(=O)(=O)N2CCCC(C(=O)NCc3ccncc3)C2)cc1Cl (stereo unspecified) | inconclusive: 9.2 µM [inhibitor, single point]
31 | O=C(NCCc1ccc(Cl)cc1)Nc1ccc(Cl)cc1 | inconclusive: 14.6 µM [activator, partial curve, poor fit]
32 | COc1ccc(Br)cc1CNC(C)c1ccccc1 (stereo unspecified) | inactive
33 | C=CCN1C(c2ccccc2)=CS/C1=C(\C#N)c1nnc2n1CCCCC2 | active: 11.2 µM
34 | c1ccc2c(c1)nc(N1CCOCC1)c1c3ccccc3[nH]c21 | inconclusive: 35.5 µM [inhibitor, single point]
35 | CCOC(=O)c1ccc(NC(=O)C(=O)NCc2ccc(/C=C(/C#N)C(=O)NCCOC)o2)cc1 | inconclusive: 32.6 µM [activator, partial curve, poor fit]
36 | CCC1(C)Cc2c(sc3nnn(CC(=O)Nc4ccc(Cl)cc4)c(=O)c23)CO1 (stereo unspecified) | inconclusive: 23.1 µM [inhibitor, single point]
37 | Cc1ccc(/C=C2\CCOC2=O)cc1 | inconclusive: 23.1 µM [activator, partial curve]
38 | O=C(CC1Sc2ccccc2NC1=O)Nc1cccnc1 (stereo unspecified) | inactive
39 | Cn1cc(Cl)c(C(=O)Nc2nc3ccccc3s2)n1 | inconclusive: 5.17 µM [activator, partial curve]
40 | O=C(CSc1nc2ccccc2c(=O)n1-c1ccccc1Cl)Nc1cccc(S(=O)(=O)N2CCOCC2)c1 | inactive
41 | O=C(Nc1cccc(Cl)c1Cl)C1CCN(c2ncccn2)CC1 | inconclusive: 14.6 µM [inhibitor, partial curve]
42 | COc1ccc(C(=O)Nc2ccc(N3CCN(C(=O)c4ccccc4)CC3)cc2)cc1[N+](=O)[O-] | inconclusive: 18.3 µM [inhibitor, single point]
43 | O=C(CCNS(=O)(=O)c1ccccc1F)OCc1ccccc1Cl | inactive
44 | O=C(CC1SC(=Nc2ccccc2)N(CCO)C1=O)Nc1ccccc1 (stereo unspecified) | inconclusive: 5.17 µM [activator, single point]
45 | FC(F)(F)c1cc(-c2ccccc2)nc(NCC2CCCO2)n1 (stereo unspecified) | inactive
46 | Cc1ccc(Cl)cc1NC(=S)N(Cc1cccnc1)Cc1ccccc1Cl | inconclusive: 16.4 µM [inhibitor, single point]
